# PubChem BioAssay AID2417 (National Center for Advancing Translational Sciences (NCATS), 2010)
# About 4,300 (3.1%) of roughly 140,000 compounds were called active. The shares of active, inactive and inconclusive entries below differ from those in the screen.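 Rule for the calls: active = readout at or below -70, meaning at least 70% loss of cells showing the perinucleolar compartment, a nuclear body marking cancer cells; inconclusive = readout between -30 and a set limit; inactive = the rest.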
# Assay: High Content Assay for Compounds that inhibit the Assembly of the Perinucleolar Compartment;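 note: plate controls were DMSO wells for no effect and camptothecin positive control wells for full effect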
# Details: PC3M PTB-GFP, PNC prevalence imaging, 16 h; at 10 µM; stronger effect = lower value
# Method in brief: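 Read-out is percentage of cells bearing a perinucleolar compartment, from automated 20x imaging of fixed, Hoechst-stained PC3M PTB-GFP cells. Cells were seeded 4 h, then exposed 16 h to compound (23 nl of library stock) in duplicate plates.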
row,SMILES,"activity change (PNC), negative = inhibition"
1,CCCCc1cc2c(c(NC(=O)CC)n1)c(=O)oc1ccccc12,inconclusive: -48.3%
2,CCOc1ccc2c(c1)c1nnc(SCC(=O)N3CCCCC3C)nc1n2C (centres undefined),inactive: 4.71%
3,Cc1cc(C(=O)N[C@H](c2ccccc2)[C@@]2(C)C[C@@H]2[C@@H](C)C(=O)Nc2ccc3ccccc3c2)n(C)n1,inactive: 48.9%
4,Cc1ccc(C(=O)NC(=S)Nc2ccc(NC(=O)c3cccc(Cl)c3)cc2)cc1,inconclusive: -33.8%
5,Cc1cccc(N2C(=O)c3cccc(Oc4ccc(Cl)cc4)c3C2=O)c1,inconclusive: -54.1%
6,COc1ccc(-c2cc(OC)c3ccccc3n2)cc1,inconclusive: -76.6%
7,CCCONC(=O)Nc1ccccc1[N+](=O)[O-],inconclusive: -39.9%
8,O=C1NN(c2ccccc2)C(=O)C2C1C1C=CC2C12CC2 (centres undefined),inconclusive: -34.4%
9,Cc1ccccc1Cn1nc(C)c(NC(=O)/C=C/c2cnn(C)c2C)c1C,inconclusive: -34.6%
10,Cc1nn(-c2ccccc2)c(C)c1/C=N/Nc1nc2ccccc2[nH]1,inconclusive: -52.4%
11,Cc1c(C(=O)NCCC2=CCCCC2)oc2ccc(S(=O)(=O)N3CCC4(CC3)OCCO4)cc12,inconclusive: -52.5%
12,O=C(Nc1nnc(SCc2c(Cl)cccc2Cl)s1)C1CCCO1 (centres undefined),inconclusive: -33.7%
13,CCCN(CCC)C(=O)Cc1coc2ccc3ccccc3c12,inconclusive: -50.5%
14,O=S(=O)(NC1CCN(Cc2ccccc2)CC1)c1cccc2cccnc12,inconclusive: -33.1%
15,CS(=O)(=O)N(CC(=O)Nc1ccccc1Sc1ccccc1)c1cccc(Br)c1,inconclusive: -57.3%
16,O=C(/C=C/c1ccccc1)N1CCN(CC(O)COc2ccccc2)CC1 (centres undefined),inconclusive: -59.5%
17,CC1=NN(c2ccc(Cl)cc2)C(=O)C1C(c1cccc(O)c1)c1c(C)[nH]n(-c2ccc(Cl)cc2)c1=O (centres undefined),inactive: 16.1%
18,CCOC(=O)c1c(C)oc2ccc(OCC(=O)N(CC)CC)cc12,inconclusive: -39.9%
19,COCC(=O)NCCSc1c(C)[nH]c2ccccc12,inconclusive: -56.7%
20,Cc1cc(C2=NNC(=NC3CC3)SC2)c(C)n1Cc1ccco1,inactive: -26.7%
21,O=C(COC(=O)c1cc2ccccc2o1)c1ccccc1,inconclusive: -66.2%
22,COc1cccc(C2C3=C(N=c4s/c(=C\c5ccc(O)cc5)c(=O)n42)c2ccccc2CC3)c1OC (centres undefined),inconclusive: -30.9%
23,COc1cccc(NC(=O)c2cc(OC)c(OC)c(OC)c2Br)c1,inconclusive: -46.7%

row,SMILES,"activity change (PNC), negative = inhibition"
1,Cc1ccc(C(=O)c2c(C)oc3c2C(=O)C(=O)c2ccccc2-3)cc1,inconclusive: -45.6%
2,CN1CCC(=NNC(=O)c2ccc(N(Cc3ccc(Cl)cc3)S(C)(=O)=O)cc2)CC1,inactive: -4.47%
3,Cn1c(CCNC(=O)c2ccccc2)nc2cc(NC(=O)C3CCCCC3)ccc21,inconclusive: -43%
4,CN1CCN(CC(O)COCCOc2ccc(Br)cc2)CC1 (centres undefined),inconclusive: -46.4%
5,Cc1ccc(C(=O)c2coc3cc([N+](=O)[O-])c(O)c([N+](=O)[O-])c23)cc1,inactive: 43.1%
6,Cc1cc(C)c2c(n1)sc1c(=O)[nH]c(SCc3ccccc3)nc12,inconclusive: -39.8%
7,O=C(Oc1ccc([N+](=O)[O-])cc1)c1cncc(Br)c1,inconclusive: -37.8%
8,COc1ccc(C(=O)CSc2nnc(C3CCCCC3)n2N)c(OC)c1,inconclusive: -58.2%
9,CCOC(=O)C1=C(C)NC(SCc2cc(=O)[nH][nH]2)=C(C#N)C1c1cccs1 (centres undefined),inconclusive: -64.2%
10,CCOC(=O)C1CCN(C(=O)c2ccccc2NS(=O)(=O)c2cc(C)ccc2C)CC1,inconclusive: -67.9%
11,CCN(CC)CCN1C(=O)C(=O)/C(=C(/O)c2c(C)[nH]c(C(=O)OC)c2C)C1c1ccccc1OC (centres undefined),inconclusive: -34%
12,CCOC(=O)CSC1=C(C#N)C(c2ccco2)C(C(=O)Nc2cccc(C(F)(F)F)c2)=C(C)N1 (centres undefined),inconclusive: -40.4%
13,C=CCn1c(SCC(=O)N2CCOCC2)nc2scc(-c3ccco3)c2c1=O,inactive: 23.2%
14,Cc1occc1-c1nnc(SCC(=O)NCC2CCCO2)n1C (centres undefined),inactive: 23.1%
15,OC1CN=C2Sc3ccccc3N2C1 (centres undefined),inconclusive: -79.6%
16,Cc1nc(NC(=O)C2CC2)sc1C(=O)N1CCCCC1,inconclusive: -33.6%
17,Cc1cccc(CSC2=NCCN2C(=O)c2ccco2)c1,inconclusive: -35.4%
18,Cc1nn(-c2ccc(Cl)cc2)c2sc(C(=O)N3CCN(C(=O)c4ccco4)CC3)cc12,inactive: -1.85%
19,FC(F)(F)c1cccc(NC(=S)Nc2ccc(Cl)cc2Cl)c1,inactive: 56.3%
20,Cc1ccc(OCC(=O)Nc2ccc(S(=O)(=O)Nc3onc(C)c3C)cc2)cc1,inactive: 62.1%
21,CC(c1ccco1)N(C(=O)Nc1ccccc1)C1CCCCC1 (centres undefined),inconclusive: -44.3%
22,O=C(Cn1cc([N+](=O)[O-])cn1)Nc1nc2ccccc2s1,inconclusive: -52.1%
23,COc1ccc(CCn2c(Br)nc3c2c(=O)[nH]c(=O)n3C)cc1,active: -82.3%

row,SMILES,"activity change (PNC), negative = inhibition"
1,O=C(Cn1cc(C(=S)N2CCOCC2)c2ccccc21)N1CCOCC1,inactive: -18.5%
2,O=C(CCCn1c(SCC(=O)c2ccc(O)c(O)c2)nc2ccccc2c1=O)NCC1CCCO1 (centres undefined),inconclusive: -54.6%
3,Cc1nn(Cc2ccccc2Cl)c(C)c1NC(=O)CCCn1nc([N+](=O)[O-])c(Cl)c1C,inactive: -10.9%
4,CCCOc1cccc(C(=O)Nc2cccnc2)c1,inconclusive: -32.8%
5,COC(=O)c1ccsc1NC(=O)CN1CCN(Cc2ccc3c(c2)OCO3)CC1,inconclusive: -30.3%
6,COc1ccccc1Cc1nnnn1CC(=O)O,inconclusive: -56.8%
7,CC(C)CCNC(=O)c1ccc(C2SCC(=O)N2Cc2ccco2)cc1 (centres undefined),active: -110%
8,CC(=O)C(=Nc1ccc(Cl)cc1Cl)NNc1cccc(Cl)c1,inconclusive: -40.1%
9,O=C(c1cn(CC(=O)N2CCCCC2)c2ccccc12)C1CC1,inconclusive: -72.1%
10,CCC(=O)Nc1cc(C(C)(C)C)ccc1C(C)=O,inactive: 52.8%
11,CS(=O)(=O)NCCSc1nnnn1-c1ccccc1,inactive: 0.182%
12,Oc1ccccc1-c1nc(N2CCCC2)c2ccccc2n1,inconclusive: -55.4%
13,Cc1ccc(C(=O)N/C(=C/c2cccnc2)C(=O)O)cc1,inconclusive: -35.1%
14,O=C(c1cccc(S(=O)(=O)N2CCCCC2)c1)N1CCOCC1,inconclusive: -42.6%
15,O=C(CCNC(=O)c1ccccc1Cl)Nc1ccc(Br)c(C(F)(F)F)c1,inconclusive: -53.7%
16,CCOc1nc(NCc2ccco2)nc(Nc2ccccc2F)n1,inconclusive: -70.2%
17,Cc1ccc(N2CN=c3s/c(=C\c4ccccn4)c(=O)n3C2)cc1,inactive: -21.7%
18,Cc1ccc(N2CCCn3c2cc(C)c(C#N)c3=O)cc1Cl,inactive: -1.2%
19,O=C(C1=NN(c2ccccc2)C2C(=O)N(c3cccc(Cl)c3)C(=O)C12)c1ccccc1 (centres undefined),inconclusive: -49.7%
20,CC(C)N(C(=O)CSc1nnnn1C1CCCC1)C(C)C,inactive: -16%
21,Cc1ccccc1-c1nc2ccccc2c(=O)n1/N=C/c1ccccc1[N+](=O)[O-],inactive: 8.58%
22,CCC(Sc1nc(C)cc(C)n1)C(=O)O (centres undefined),inconclusive: -45.8%
23,O=C(Nc1nc(-c2nc3ccccc3s2)cs1)c1ccc(S(=O)(=O)N2CCOCC2)cc1,inconclusive: -37.7%

row,SMILES,"activity change (PNC), negative = inhibition"
1,CC(C)[C@H](Nc1ccc(S(=O)(=O)N2CCOCC2)cc1[N+](=O)[O-])C(=O)OCC(=O)N(C(C)C)C(C)C,inactive: 6.16%
2,Cc1cn([C@H]2C=C[C@@H](CO)O2)c(=O)[nH]c1=O,inactive: 65.4%
3,CCOC(=O)C(C)N1N=C(/C=C/c2ccc(C)cc2)CCC1=O (centres undefined),inconclusive: -36%
4,CC(C#N)On1c(SC(C)C#N)nc2ccccc2c1=O (centres undefined),inactive: -1.25%
5,O=C(CN1C2=NCCN2c2ccccc21)N1CCOCC1,inconclusive: -36%
6,CC/C(=N\NC(=S)Nc1ccc(OC)cc1)c1ccc(OC(F)F)cc1,inconclusive: -39.9%
7,C=CCn1c(SCC(=O)NCC)nnc1-c1cc2c(s1)CCC(CC)C2 (centres undefined),inconclusive: -47.8%
8,CCOc1ccccc1C(=O)N1CCN(c2cccc(Cl)c2)CC1,inconclusive: -32.7%
9,CS(=O)(=O)N1CCN(C(=O)NC23CC4CC(CC(C4)C2)C3)CC1,inconclusive: -78.3%
10,Cc1cc(C)c(S(=O)(=O)Nc2ccc[nH]c2=O)c(C)c1,inactive: -8.33%
11,CCOC(=O)NCC(C#CCN(CC)CC)N(CC)CC (centres undefined),active: -92.8%
12,COc1ccc(-n2c(-c3cccc(C)c3[N+](=O)[O-])n[nH]c2=S)cc1,active: -109%
13,CC(=O)NS(=O)(=O)c1ccc(N)cc1,inactive: -23.9%
14,CC(C)CC(=O)N1CCN(Cc2cccc(F)c2)CC1,inactive: 64.5%
15,Cc1cc(NC(=O)CSC2=NCCS2)no1,active: -109%
16,C=CCOC(=O)C1=C(C)OC(N)=C(C#N)C1c1ccc(OC)c(CSc2ccccn2)c1 (centres undefined),inconclusive: -52%
17,O=C(Cc1ccc(Cl)cc1)Nc1ccccc1Sc1ccccc1,inactive: 54.9%
18,C=CCN1C(=O)S/C(=C\c2ccc3c(c2)n(C)c(=O)n3C)C1=O,inactive: 13.2%
19,COC(=O)[C@H](Cc1ccccc1)NC(=O)NCC1CCCO1 (some centres undefined),inconclusive: -43.2%
20,O=C(Oc1ccccc1C(=O)Nc1ccccc1)c1ccccc1Br,inactive: -7.81%

# A second format for 7 compounds above.
row	SMILES	activity change (PNC), negative = inhibition
15	OC1CN=C2Sc3ccccc3N2C1 (centres undefined)	inconclusive: -79.6%
16	Cc1nc(NC(=O)C2CC2)sc1C(=O)N1CCCCC1	inconclusive: -33.6%
17	Cc1cccc(CSC2=NCCN2C(=O)c2ccco2)c1	inconclusive: -35.4%
18	Cc1nn(-c2ccc(Cl)cc2)c2sc(C(=O)N3CCN(C(=O)c4ccco4)CC3)cc12	inactive: -1.85%
19	FC(F)(F)c1cccc(NC(=S)Nc2ccc(Cl)cc2Cl)c1	inactive: 56.3%
20	Cc1ccc(OCC(=O)Nc2ccc(S(=O)(=O)Nc3onc(C)c3C)cc2)cc1	inactive: 62.1%
21	CC(c1ccco1)N(C(=O)Nc1ccccc1)C1CCCCC1 (centres undefined)	inconclusive: -44.3%
